Test results published in article PMC12040169 (PLOS Biology, 2025).
This is one part of the list.

What follows are molecules tested on T1, CTL2-GFP (C. trachomatis L2/434/Bu, GFP-expressing). Details: bulk GFP, single well; 28.5 h, 10 µM; inhibitor.
T1 construct: L2/434/Bu, GFP-expressing
Parameters: species or system HeLa; Intracellular C. trachomatis growth in HeLa cells, bulk GFP fluorescence relative to DMSO

SMILES | % of control remaining [%]
Cc1nc(C)n(CCNC(=O)C(C)Cc2cccs2)n1 (stereo not shown) [CBK282067] | 116.857
O=C(Cn1c(-c2ccc(F)cc2)cc2cccnc21)N1CCOCC1 [CBK285383] | 99.4383
COc1ccc(NS(=O)(=O)c2ccc(Cl)cc2Cl)c(C(=O)NCc2ccccc2)c1 [CBK113943] | 118.77
CCN(CC(=O)Nc1ccccc1OC)S(=O)(=O)c1ccccc1 [CBK269428] | 117.404
CCOc1ccc(OC(=O)c2ccc3c(c2)OCO3)cc1 [CBK149205] | 120.044
O=C1NCCCC12CCN(Cc1cnc(N3CCOCC3)nc1)CC2 [CBK285528] | 113.231
Cc1cc(NC(=O)c2ccccc2)nc2c1c(=O)oc1ccccc12 [CBK291126] | 107.771
O=C(NC1CCN(CC2(c3ccccc3)CC2)CC1)c1cc[nH]n1 [CBK285351] | 133.34
N#Cc1sc2nc(C34CC5CC(CC(C5)C3)C4)ccc2c1N [CBK267455] | 141.744
O=C1CC(Cc2ccccc2)C(=O)N1CCCn1ccnc1 (stereo not shown) [CBK265123G] | 120.372
Cc1ccc(-c2nnc(CNC(=O)c3ccccc3-c3ccccc3)o2)s1 [CBK286298] | 108.705
CCNCCOc1c(C)cc(C)cc1C [CBK270137C] | 84.5363
COc1ccc(Nc2nnc(-c3ccc(C(N)=O)cc3)c3ccccc23)cc1 [CBK264246] | 115.569
Cn1c(=O)n(C)c2cc(S(=O)(=O)NCC3(O)CCCNCC3)ccc21 (stereo not shown) [CBK306777] | 130.75
Brc1ccc(NCc2ccccn2)cc1 [CBK026347] | 140.988
COCCC(=O)N1C[C@@H](c2cccc(F)c2)[C@@]2(CCCC(=O)N2)C1 [CBK283450] | 115.744
COc1ccc(OCC(=O)NNC(=O)c2cnccn2)cc1 [CBK262619] | 110.613
O=C(Nc1cccc([N+](=O)[O-])c1)c1cc(S(=O)(=O)N2CCCCC2)ccc1Cl [CBK261367] | 118.374
COc1ccc(-c2csc(NC(=O)c3ccccc3-c3ccccc3C(=O)O)n2)cc1 [CBK296076] | 143.822
C=CCNC(=O)Cn1c(-c2ccco2)cc2cccnc21 [CBK282719] | 139.127
CCOC(=O)C1CSCCN1C(=O)c1ccc(-n2nc(C)cc2C)cc1 (stereo not shown) [CBK304517] | 149.09
CCO[C@H]1COC[C@@H]1NC(=O)c1cccc2c1NCCC2 [CBK307113] | 115.505
Cc1ccccc1NS(=O)(=O)c1cc(CN2C[C@@H](C)NC[C@@H]2C)c2occc2c1 [CBK103579T] | 117.869
COCCNC(=O)c1ccc(-c2ccccc2)nc1N(C)C [CBK106049] | 96.2542
CCc1cc(C(=O)NC(c2ccc(F)cc2)c2nccn2C)n(C)n1 (stereo not shown) [CBK281434] | 76.2478
O=C(Cn1c(C(F)(F)F)nc2ccccc21)NCCN1CCOCC1 [CBK267339] | 173.122

SMILES | % of control remaining [%]
CC1CCCCC1NC(=O)Cn1ncc2cccn2c1=O (stereo not shown) [CBK283673] | 133.65
COCCCNC(=O)c1cccs1 [CBK009164] | 94.6516
CCN(CC)c1ccc(C(=O)Cn2c(=O)n(C(=O)CCCc3ccc(OC)cc3)c3ccccc32)cc1 [CBK106503] | 195.508
CC1CCN(Cc2ccc(-c3nnn(CC(=O)NCc4ccc(C(F)(F)F)nc4)n3)cc2)CC1 [CBK149721T] | 97.1952
OCCN(Cc1cccnc1)Cc1cccn1-c1ccccc1Cl [CBK282936] | 125.375
Cn1cc(C(=O)NCC(c2ccc(F)cc2)N2CCCC2)ccc1=O (stereo not shown) [CBK282843] | 121.44
O=C(NCCNc1ccc([N+](=O)[O-])cc1Cl)c1ccccc1Cl [CBK263541] | 99.6802
Cc1ccc(-c2cc3ccccn3c2C(=O)CSc2nncn2C)cc1 [CBK269580] | 143.862
O=C(O)C(c1c[nH]c2ccccc12)N1CCN(Cc2ccncc2)CC1 (stereo not shown) [CBK286624] | 133.57
CC(C)c1ccc(S(=O)(=O)N2CC3CC2CO3)cc1 (stereo not shown) [CBK050999] | 113.515
CC(C)[C@@H](CO)Nc1cncc(-c2cccc3ccccc23)n1 [CBK065566] | 104.778
OCc1nc2cc3cn[nH]c3cc2[nH]1 [CBK016203] | 100
CCOC(=O)c1cccc(-c2ccsc2)n1 [CBK149244] | 94.4935
O=C(Nc1ccc2[nH]ccc2c1)c1cnc(-c2ccc(F)cc2)c(-c2ccncc2)c1 [CBK037451] | 128.832
Cc1ccc(OCC(=O)NNC(=O)C2COc3ccccc3O2)cc1 (stereo not shown) [CBK263511] | 132.839
O=C(O)CC1S/C(=N/N=C/c2ccc(-c3cccc([N+](=O)[O-])c3)o2)NC1=O (stereo not shown) [CBK264517] | 106.133
CCCc1cc(=O)[nH]c2nnc(SCC(=O)NC)n12 [CBK287685] | 116.387
Cn1c(C(C)(C)C)cs/c1=N\NS(=O)(=O)c1ccccc1 [CBK006830B] | 84.9106
CC(C)Nc1nc(NC(C)C)nc(Oc2ccc(C=O)cc2)n1 [CBK265043] | 94.1027
O=C(NC(NC1CCS(=O)(=O)C1)C(Cl)(Cl)Cl)c1ccc(Br)cc1 (stereo not shown) [CBK261091] | 75.4737
COC(=O)c1ccc(NC(=O)CSc2nnc(-c3ccc(C)cc3)n2N)cc1 [CBK266114] | 100.676
COc1ccc(OC)c(S(=O)(=O)N2CC[C@H]3CC(=O)N(CCN(C)C)CC[C@H]3C2)c1 [CBK288788] | 106.339
O=C(Nc1ccc(S(=O)(=O)NCCN2CCOCC2)cc1)N1CCCC1 [CBK270015] | 108.797
COc1ccccc1OCc1ccc(Cl)s1 [CBK002782] | 152.522
CCCN(CCC#N)S(=O)(=O)c1ccc(C(C)C)cc1 [CBK043453] | 117.743
COc1cc(CNCCO)cc(Br)c1OCc1cccnc1 [CBK269681C] | 98.0157

Quoted at random: 3 compounds from above
SMILES | % of control remaining [%]
O=C(O)CC1S/C(=N/N=C/c2ccc(-c3cccc([N+](=O)[O-])c3)o2)NC1=O (stereo not shown) [CBK264517] | 106.133
Cc1ccc(OCC(=O)NNC(=O)C2COc3ccccc3O2)cc1 (stereo not shown) [CBK263511] | 132.839
CC(C)Nc1nc(NC(C)C)nc(Oc2ccc(C=O)cc2)n1 [CBK265043] | 94.1027
